Measurements from “University of Dundee, Small-Polar-MMV Screening Library” (2021), ChEMBL document CHEMBL3988442.

A: 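Whole-cell assay for inhibitors of Mycobacterium tuberculosis growth, labelled Cornell in the record; the read-out is not stated. The concentration is filed as 10 mM, unlikely as a test dose, so the dose is not known. Higher means stronger inhibition (inferred from two other growth screens of the library). Of about 53,000 compounds tested this way, about 900 (1.7%) reached 50% or more in at least one test.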
B: 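Assay on Mycobacterium tuberculosis, filed only as a heat shock assay from Cornell; the read-out is not stated. The concentration is filed as 10 mM, unlikely as a test dose, so the dose is not known. Higher reads as stronger inhibition (inferred: compounds with an IC50 in retests scored well above the rest). Size under these conditions: about 69,000 compounds, about 930 of them at 50% or above in at least one test.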

Results are given as percent effect. The record does not define 0% and 100%; most values in the screen are far below 50% and negative numbers occur (in some assays of this library far below -100). Compounds were drawn at random from those tested, without regard to their results. A dash means the value is not listed here; it may have been measured.

Compound,A,B
Cc1cccc2c1OCCCC2NCc1nnc2n1CCCCC2 (stereo unspecified),21.72,-4.885
COCCN1CCC(C(=O)N(C)CCOc2ccc(C)cc2Cl)C1 (stereo unspecified),-5.377,-29.57
CCOC1CCCN(C(=O)c2[nH]nc(C)c2Br)C1 (stereo unspecified),19.83,14.23
CC(=O)CC(C)(C)NC(=O)CCN(C)Cc1ccc(Cl)s1,-0.08486,-3.369
CCNC(=O)[C@@H]1C[C@@H](NC(=O)c2ccc(C)cc2O)CN1CCCSC,21.95,-2.215
Cc1csc(N2CCCN(C(=O)C(C(C)C)n3cncn3)CC2)n1 (stereo unspecified),6.786,13.59
COc1cc(C(=O)N2CC(Oc3ccccc3Cl)C2)ccn1,25.67,-25.69
CC(C(=O)NS(=O)(=O)Cc1cc(-c2ccccc2)no1)C1CC1 (stereo unspecified),33.58,1.8
Cn1nc2c(cc1=O)CN(Cc1coc(-c3cccc(F)c3)n1)CC2,-,11.73
CNC(=O)C(CC(C)C)NC(=O)c1cccc(-c2nc(C)cs2)c1 (stereo unspecified),-,7.519
Cc1cc(N2CCOCC2)ccc1NC(C)c1nc(C(C)(C)C)no1 (stereo unspecified),76.4,72.1
O=C(O)C(F)(F)F.[H][C@@]12CN(c3ccc(C)nn3)C[C@H](C(=O)NCC3CC3)[C@]1([H])CCO2,25.4,-7.688
CC(=O)N1CCC2(C1)CN(C(=O)C1CCOC1)C2 (stereo unspecified),20.3,10.21
Cn1cc(CN2CCCN(C(=O)c3ccccn3)CC2)cn1,-,-4.213
Cn1nc(C(=O)NCc2ccccc2C(F)(F)F)c2c1CCS(=O)(=O)C2,-,2.494
CC(C)c1nnc(CN(C)Cc2ccccc2-c2ccccc2)o1,60.67,24.8
CC1CN(C)c2ccccc2CN1C(=O)c1cscn1 (stereo unspecified),4.867,16.66
C[C@H]1CN(C(=O)c2ccc[nH]2)C[C@@]12CCN(c1ccsc1)C2=O,16.7,-1.806
CN(Cc1cc(Cl)cc2cccnc12)CC1CCN(CCO)CC1,-,3.317
O=C(CCCc1nnc(-c2ccccc2)o1)N1CCN(C2CC2)CC1,-,-1.614
CC(=O)NCCCSCCOc1cccc(C#N)c1,36.22,6.679
FC(F)(F)c1n[nH]c2c1CN(Cc1cn3ccccc3n1)CC2,-,-0.4093
Cc1nc(N2CCCC2)nc2c1CCN(C(=O)C(C)C)CC2,23.43,-3.919
CC(=O)N[C@@H]1CN(C(=O)c2cccc(C(F)(F)F)c2)C[C@H]1O,25.56,-5.977
COCCNCC1(O)CCCN(Cc2ccc(F)c(F)c2)C1=O (stereo unspecified),16.46,-16.59
CCOc1ncccc1C(=O)N1CCCC1c1c(C)nn(C)c1Cl (stereo unspecified),-,-1.331
CCc1c(C)n(CC(=O)OC)c2nc3ccccc3n2c1=O,21.57,-1.934
Cc1cc(C)c2ncc(C#N)c(N3CCS(=O)(=O)CC3)c2c1,-,-2.727
COCCC(=O)N1CCC2(CC1)CC(c1ccccc1)CN(C1CC1)C2 (stereo unspecified),-,22.9
CN(C)C(=O)c1c[nH]nc1-c1ccc(CNC(=O)c2cnccn2)cc1,21.75,8.22
Cc1cc(C)n(C2CCN(C(=O)c3cn4ccsc4n3)C2)n1 (stereo unspecified),-,-122
CC(C)c1cc(NC(=O)CN2CCCC2Cn2cccn2)on1 (stereo unspecified),25.95,-10.53
Cn1ccc(C(=O)NC2CCC23CCN(C(=O)N2CCCC2)CC3)c1 (stereo unspecified),-6.595,8.638
Cc1nccn1C1CCCN(C(=O)c2cnc[nH]2)C1 (stereo unspecified),-,-14.27
Cl.Fc1cccc(CN2CCC(c3cc4ncccc4cn3)CC2)c1F,106.5,102.4
OCCN(Cc1ccccc1)Cc1ccsc1,-,0.3951
CCc1c(C)nn2c(O)cc(C3CCN(C(=O)c4ccn(C)n4)C3)nc12 (stereo unspecified),-2.349,-28.88
O=C(NC1CC1)c1ccc(SCc2cscn2)cc1,-,-0.6027
CCC(CC)CN1CCC2(CCC(=O)N2OCc2ccccc2F)CC1,-19.41,-5.286
Cc1nc(CN2CCOCC3(CCN(c4ncccn4)C3)C2)cs1.O=C(O)C(F)(F)F.O=C(O)C(F)(F)F (stereo unspecified),29.13,13.69
CNC(=O)CCc1cc(C)nc(C2CCN(C(=O)CN(C)C)CC2)c1,-34.24,1.67
CCN1CC2(CCC1=O)CCN(CCc1nccn1C)CC2,19.13,17.98
CCCc1nnc(NC(=O)NC2CCOc3ccccc32)s1 (stereo unspecified),-10.05,4.249
CC1COCCN1C(=O)COc1ccc(Oc2ccccn2)cc1 (stereo unspecified),30.91,-1.661
CN(C)CCNC(=O)CCC1CCN(C(=O)c2ccc(Cl)cc2O)CC1,4.541,-23.85
COC(=O)c1cccc(C(=O)N(CCC#N)CC(C)(C)C)c1,-,-11.95
c1ccc2c(c1)CC(N1CCCC(NCc3ccc4nonc4c3)C1)C2 (stereo unspecified),-9.468,13.28
O=C(N[C@H]1COC[C@@H]1N1CCCC1)c1csc(Cc2ccccc2)n1,12.08,40.35
O=C(O)C(F)(F)F.O=C1CC2(CCN(Cc3ccccn3)C2)CN1c1cncnc1 (stereo unspecified),17.37,4.332
Cc1ccccc1NC(=O)c1cncc(C2CCNCC2)n1.Cl,13.89,27.66
Cc1cc(C)c2c(c1)C(NCc1nnc3n1CCC3)CCCO2 (stereo unspecified),-1.943,2.103
CC1(c2ccc(Br)cc2)CC(=O)N(CC(N)=O)C1=O (stereo unspecified),-20.28,1.434
Cc1nc(C)c(CC(=O)Nc2ncc(C)s2)c(=O)[nH]1,-,5.9
CN1CCC2(CC1)CN(C(=O)c1cccc3cccnc13)CCN2C,29.02,-11.67
[H][C@@]12CCN(C(=O)c3cc(C)on3)C[C@@]1([H])O[C@H](c1nc(C)cs1)C2,3.671,6.695
O=C1Nc2ccccc2CNC12CCN(CC1CC1)CC2,-,-18.21
CC1c2ccc(F)cc2CCN1C(=O)c1nc(=O)[nH][nH]1 (stereo unspecified),10.03,8.599
CCOCC1CN(C(=O)c2cscn2)Cc2nnn(CC3CC3)c21 (stereo unspecified),10.3,1.138
[H][C@@]12CS(=O)(=O)C[C@]1([H])NCCN2c1ccnc(N(C)Cc2cccnc2)n1,-2.416,7.075
Cn1cc(NC(=O)CCCc2cccs2)c(=O)n(C)c1=O,29.33,9.125
COCCc1noc(-c2ccc(-c3cc[nH]n3)nc2)n1,-26.88,11.64
CC(=O)Nc1nc(CN2CCCCC2Cn2cncn2)cs1 (stereo unspecified),-18.45,-13.4
CCc1ccc(C2COCCN2C(=O)Nc2cc(C)on2)o1 (stereo unspecified),6.458,2.19
[H][C@@]12C[C@@H](O)CN1C[C@@H](Cc1ccccc1)N(Cc1ccccc1Cl)C2,13.61,-8.628
Cc1noc2ncc(C(=O)NCC3CCN(C(C)C)C3)cc12 (stereo unspecified),-,7.365

Repeated from the top, 5 entries:

{"compound": "Cc1cccc2c1OCCCC2NCc1nnc2n1CCCCC2", "stereo": "stereo unspecified", "A": 21.72, "B": -4.885}
{"compound": "COCCN1CCC(C(=O)N(C)CCOc2ccc(C)cc2Cl)C1", "stereo": "stereo unspecified", "A": -5.377, "B": -29.57}
{"compound": "CCOC1CCCN(C(=O)c2[nH]nc(C)c2Br)C1", "stereo": "stereo unspecified", "A": 19.83, "B": 14.23}
{"compound": "CC(=O)CC(C)(C)NC(=O)CCN(C)Cc1ccc(Cl)s1", "A": -0.08486, "B": -3.369}
{"compound": "CCNC(=O)[C@@H]1C[C@@H](NC(=O)c2ccc(C)cc2O)CN1CCCSC", "A": 21.95, "B": -2.215}